Experimental findings from publication PMC5323130 (Oncotarget, 2016) are described below.

Strings that start with PEPTIDE1 are HELM notation: dots part the residues, brackets hold end groups and non-standard residues.

This series is described as follows: general procedure: Fmoc solid-phase peptide synthesis. As to conditions: whole synthesis, HPLC.
On to PEPTIDE1{A.D.Y.K}$$$$V2.0, for which the “purity (crude or final not stated)” value was 95.17%.
Turning to “PEPTIDE1{F.N.W.D.Y.S.L.E.E.L.R.E.K.A.K.Y.K}$$$$V2.0”, the “purity (crude or final not stated)” value came to 95.80%.
Turning to “PEPTIDE1{F.N.W.D.Y.S.W.K.S.E.R.L.K.E.A.Y.D.L}$$$$V2.0”, the “purity (crude or final not stated)” value came to 96.66%.
Consider PEPTIDE1{G.I.D.Y.E.E.R.W.K}$$$$V2.0, for which the “purity (crude or final not stated)” value turned out to be 95.14%.
Take “PEPTIDE1{G.N.A.D.Y.N.S.Q.R.A.Q.L.Y.N.Q}$$$$V2.0”: the “purity (crude or final not stated)” value worked out at 97.56%.
Consider “PEPTIDE1{G.N.W.A.Y.N.S.Q.R.A.Q.L.Y.N.Q}$$$$V2.0”, for which the “purity (crude or final not stated)” value came out at 95.18%.
Turning to “PEPTIDE1{G.N.W.D.A.N.S.Q.R.A.Q.L.Y.N.Q}$$$$V2.0”, the “purity (crude or final not stated)” value worked out at 96.76%.
Then “PEPTIDE1{G.N.W.D.Y.N.S.Q.A.A.Q.L.Y.N.Q}$$$$V2.0”, with 96.65%; and “PEPTIDE1{G.N.W.D.Y.N.S.Q.R.A.Q.L.Y.N.Q}$$$$V2.0”, with 98.24%.
Then PEPTIDE1{L.D.Y.D.G.R.L.S.Q}$$$$V2.0, with 96.46%; and “PEPTIDE1{L.D.Y.G.D.K.R.E.G.Q.M.A.E}$$$$V2.0”, with 98.81%.
For the substance PEPTIDE1{L.D.Y.V.N.R.R.K.M.Y.Q}$$$$V2.0, the “purity (crude or final not stated)” value came out at 96.08%.
“PEPTIDE1{T.E.K.D.Y.R.H.G.N.I.R.M.K.L.A.Y.D.L}$$$$V2.0”: the “purity (crude or final not stated)” value amounted to 96.71%.
As for PEPTIDE1{W.D.Y.D}$$$$V2.0, the “purity (crude or final not stated)” value is 98.40%.
